Laboratory results from PubChem BioAssay AID1671190 (National Center for Advancing Translational Sciences (NCATS), 2021).
Screen size: about 580,000 compounds; about 6,100 (1.1%) were called active. Inconclusive means that the source gave no clear call. Such entries were picked first, then a sample of the others. Calls come from the whole dose curve; as a rule, active = well fitted inhibition curve with a large enough effect; inconclusive = small, poorly fitted or top-dose-only effect, or another doubt; inactive = no such curve, though single readings can be large or run the other way. Potencies of inconclusive entries are doubtful fits and often do not repeat.
% is set by controls: 0 for no effect and ±100 for the full control effect; potency is the fitted concentration of half-maximal effect.

The chains behind the UniProt entries cited, without tags or fusion partners. Where a name states a change or a piece, a line headed by the entry shows the natural chain unless it says otherwise.
UniProt P18054: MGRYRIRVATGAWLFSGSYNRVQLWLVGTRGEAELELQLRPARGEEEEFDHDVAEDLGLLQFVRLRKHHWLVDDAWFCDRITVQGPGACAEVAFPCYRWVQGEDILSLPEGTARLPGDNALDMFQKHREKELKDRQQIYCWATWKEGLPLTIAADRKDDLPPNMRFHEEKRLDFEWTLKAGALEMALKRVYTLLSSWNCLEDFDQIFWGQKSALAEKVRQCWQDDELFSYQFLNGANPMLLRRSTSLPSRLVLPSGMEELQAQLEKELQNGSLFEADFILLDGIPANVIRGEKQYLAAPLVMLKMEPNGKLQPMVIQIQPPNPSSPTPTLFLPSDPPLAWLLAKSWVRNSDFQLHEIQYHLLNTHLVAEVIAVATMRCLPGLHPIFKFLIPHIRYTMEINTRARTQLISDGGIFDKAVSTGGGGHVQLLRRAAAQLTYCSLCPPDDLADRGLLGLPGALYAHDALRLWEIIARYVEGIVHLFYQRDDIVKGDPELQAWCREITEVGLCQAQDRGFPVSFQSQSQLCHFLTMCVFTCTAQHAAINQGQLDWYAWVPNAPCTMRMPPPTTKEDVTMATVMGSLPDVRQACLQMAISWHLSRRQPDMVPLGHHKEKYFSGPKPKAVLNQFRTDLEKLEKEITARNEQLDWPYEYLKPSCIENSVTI

Each compound was assayed against Polyunsaturated fatty acid lipoxygenase ALOX12 (Homo sapiens) (UniProt P18054) (assay: Primary qHTS assay for inhibitors of human arachidonate 12S-lipoxygenase (ALOX12): Round 2). Settings: purified 12hLO, xylenol orange hydroperoxide absorbance; activity change, negative = inhibition: at 108 µM (top of the series) unless noted.
In short: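 Purified human 12hLO (150 nM final) in 25 mM Hepes, 0.01% Triton X-100, pH 7.0 was preincubated 15 min at room temperature with compound. Then 40 uM arachidonic acid was added, 30 min. Hydroperoxide was read by Fe-XO absorbance ratio 573/405 nm.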
For `CC(C)(C)NC(=O)C12CC3CC(CC(Cl)(C3)C1)C2`, the “activity change, negative = inhibition” value was inactive: 0.998%. For `COc1ccc(-c2ocnc2C(=O)Nc2cc(F)ccc2F)cc1OC`, the Potency was inconclusive: 56.2 µM [inhibitor, partial curve, poor fit]. `O=c1oc2cc(O)ccc2c2ccccc12` was tested, and the Potency was inconclusive: 44.7 µM [inhibitor, partial curve, poor fit]. For `COc1cccc(/C=C2\SC(=S)NC2=O)c1OS(=O)(=O)c1ccc(NC(C)=O)cc1`, the Potency was inconclusive: 100 µM [inhibitor, partial curve, poor fit]. `COc1ccccc1-c1nc2ccc(Cl)cc2c(=O)n1O` was tested, and the Potency was inconclusive: 0.126 µM [inhibitor, full curve, poor fit]. `CN(CC[C@H]1CN(C(=O)NC2CCCCC2)CC[C@H]1CC(=O)O)c1ccccc1` was tested, and the Potency was inconclusive: 15.8 µM [inhibitor, full curve, poor fit]. With `O=C(NCC1Cc2cc(F)cc(-c3cnccn3)c2O1)c1cccc(-c2ccccc2F)c1` (stereo not given) the “activity change, negative = inhibition” value was inactive: 3.14%. For `O=C1CCc2cccc(O)c2N1`, the “activity change, negative = inhibition” value was inactive: -18.4%. For `COc1ccc(CCNC(=S)NNC(=S)NCC2CCCO2)cc1OC` (stereo not given), the “activity change, negative = inhibition” value was inactive: -44.7%. In the case of `CCN(CC)S(=O)(=O)c1ccc(C)c(NC(=O)c2ccc(OC(F)F)cc2)c1`, the “activity change, negative = inhibition” value is reported as inactive: -4.88%. With `CCCCCn1nc(C(=O)N(CC)c2c(N)n(CCCC)c(=O)[nH]c2=O)c2ccccc2c1=O` the Potency was inconclusive: 50.1 µM [inhibitor, partial curve, poor fit]. `C=CCC1=C/C(=C\c2c(N)n3nc(CC(=O)N4CCOCC4)sc3nc2=O)C=C(OC)C1=O` was tested, and the Potency was inconclusive: 44.7 µM [inhibitor, partial curve, poor fit]. In the case of `Cc1cccc2nc(-c3ccc(O)cc3)c(Nc3ccc4c(c3)OCCO4)n12`, the Potency is reported as inconclusive: 20 µM [inhibitor, partial curve, poor fit]. For `c1ccc2c(-c3[nH]ncc3CNCCCn3ncc4ccccc43)cccc2c1`, the “activity change, negative = inhibition” value was inactive: -11.6%. `Clc1ccc2nnc(Cl)n2n1` was tested, and the “activity change, negative = inhibition” value was inactive: 0.957%. For `COC(=O)c1cc(=O)n(-c2c(Cl)cc(C(F)(F)F)cc2Cl)[nH]1`, the Potency was inconclusive: 0.316 µM [inhibitor, full curve, poor fit]. `Nc1nc(CN2CCN(c3ccc(F)cc3)CC2)nc(N2CCCc3ccccc32)n1` was tested, and the Potency was inconclusive: 100 µM [inhibitor, single point]. For `Nc1cccc(NC(=O)c2ccco2)c1`, the “activity change, negative = inhibition” value was inactive: 17.6%. For `CCOc1ccc(NC(=O)CC2C(=O)N(C)C(=S)N2Cc2ccco2)cc1` (stereo not given), the “activity change, negative = inhibition” value was inactive: 0.185%. For `CCCCn1nc(C(=O)N[C@@H](CCSC)c2nc3ccccc3[nH]2)c2ccccc2c1=O`, the “activity change, negative = inhibition” value was inactive: 221%.
